These are yes or no findings as the source states them, for the method shown. Binding seen in cells or lysates may run through a third protein. Binding calls can cover weak binding; strength is not graded here.
Target: GFP-SteD (wild type) (Salmonella enterica serovar Typhimurium (14028s))
Experiment: co-IP; Mel Juso cells expressing GFP-tagged effectors, crosslinked with 2 mM DSP for 2 h at 4°C before lysis (5% glycerol, 0.5% Triton X-100, 1 mM PMSF in PBS); GFP-Trap beads 2 h at 4°C, four washes; immunoblot of endogenous partners (AP1 by its γ subunit)

B1: TMEM127 (protein, UniProt O75204 1-238)
chain: MYAPGGAGLPGGRRRRSPGGSALPKQPERSLASALPGALSITALCTALAEPAWLHIHGGTCSRQELGVSDVLGYVHPDLLKDFCMNPQTVLLLRVIAAFCFLGILCSLSAFLLDVFGPKHPALKITRRYAFAHILTVLQCATVIGFSYWASELILAQQQQHKKYHGSQVYVTFAVSFYLVAGAGGASILATAANLLRHYPTEEEEQALELLSEMEENEPYPAEYEVINQFQPPPAYTP
In the case of B1, the binding is reported as “binds”.

— paper PMC9182567
